Measured values: US6399658B1, “Composition containing ascorbic acid” (Sumitomo Pharmaceuticals Co., Ltd., priority 1996, dated 2002)

Test system: rat hepatocytes primary culture
Assay: Inhibition of gluconeogenesis in rat hepatocytes primary culture
Type: cell-based
Conditions: 6 hr; for Glucose levels in the medium: Hanks solution containing 0.1% fructose
Protocol: Hepatocytes were isolated from a male Wistar rat. The isolated hepatocytes were grown on gelatin coated 24-well plate (3×10^5 cells/well) in Williams E medium containing 10 nM dexamethasone and 5% fetal calf serum under the 37° C., 5% CO2/95% air condition for 24 hr.
After the plates of hepatocytes primary culture were washed by phosphate buffer twice, the medium were changed to Hanks solution containing 0.1% fructose (depletion glucose). […] Glucose levels (mg/dL) in the medium were measured.

CN(C)C(=N)NC(=N)N.Cl [Metformin hydrochloride, 1,1-dimethylbiguanide hydrochloride]
Glucose levels in the medium (1 mM (each 1 mM for the combination)): 17.7 mg/dL
Glucose levels in the medium (3 mM (each 3 mM for the combination)): 15.2 mg/dL
Effect on gluconeogenesis (in words) (1 or 3 mM): Gluconeogenesis was reduced
